Test results taken from PubChem BioAssay AID328 (DTP/NCI, 2004).
The list does not hold the whole screen: it gathers tests that were run many times, whatever their T/C, doses with no T/C, and many T/C values between a quarter and a half above the control. Other doses and runs of a compound stand elsewhere. T/C: endpoint of the treated group in % of that of the vehicle group. Some entries give survivors of the animals treated and no T/C: the source holds a T/C of zero for them, seemingly a mark for toxic or unscored doses. Some doses without a T/C left all or most animals alive at the check, yet need not have been tolerated: the source hardly ever lists a survival T/C far under the control, and the zero likely stands for such cases as well. Counts of survivors are from the toxicity check (mostly the fifth day) where no day follows; animals may have died later. Schedules are NCI's codes, taken here to give the interval after Q, in days (D) or hours (H), and the number of doses after X. Some molecules as drawn cover several salts, stereoisomers or complexes of the source; a dose is that of the sample tested. Some entries were tested several times; their values stand side by side, smallest first. For survival time, the PubChem record calls one and a half times the control and up active, and a quarter to a half above the control has no call in these data; cut-offs in other NCI protocols can differ. Some T/C values carry the count of animals alive at the toxicity check (mostly the fifth day); without a count, all were alive then. Signs of the kind (2×) say how often a value occurs here.

Tested on: BDF1 mice, P388 leukemia ip, median survival T/C
Experiment: NCI In Vivo Anticancer Drug Screen. Data for tumor model P388 Leukemia (intraperitoneal) in B6D2F1 (BDF1) mice
Settings: T/C endpoint: median survival time, higher T/C = longer survival
How it was run: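 Compound-treated tumour-bearing mice were compared with vehicle-treated controls. Survival was recorded, and the value is the treated-group measurement divided by the control-group measurement (T/C).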

## COc1cc2c[n+](C)c3c4cc5c(cc4ccc3c2cc1OC)OCO5
dose: 1.0 mg/kg/injection, schedule: Q01DX009 (ip), vehicle: saline, evaluated on day 30
  T/C: 86, 95 [4 of 6 alive], 97, 104, 113, 115 % of control
dose: 1.0 mg/kg/injection, schedule: Q01DX009 (ip), vehicle: saline, evaluated on day 60
  T/C: 133 and 161 % of control
dose: 1.25 mg/kg/injection, schedule: Q01DX009 (ip), vehicle: saline
  T/C: 126 % of control
dose: 1.25 mg/kg/injection, schedule: Q01DX009 (ip), vehicle: water
  T/C: 122, 124 (2×), 125, 128 % of control (2×)
dose: 2.0 mg/kg/injection, schedule: Q01DX009 (ip), vehicle: saline, evaluated on day 20
  T/C: 114 % of control
dose: 2.0 mg/kg/injection, schedule: Q01DX009 (ip), vehicle: saline, evaluated on day 30
  T/C: 109, 131, 144, 145 % of control (3×)
dose: 2.0 mg/kg/injection, schedule: Q01DX009 (ip), vehicle: saline, evaluated on day 60
  T/C: 142 and 190 % of control
dose: 2.5 mg/kg/injection, schedule: Q01DX009 (ip), vehicle: saline
  T/C: 135 % of control
dose: 2.5 mg/kg/injection, schedule: Q01DX009 (ip), vehicle: water
  T/C: 129 (2×), 138 (2×), 141 % of control (2×)
dose: 4.0 mg/kg/injection, schedule: Q01DX009 (ip), vehicle: saline, evaluated on day 20
  T/C: 157 % of control
dose: 4.0 mg/kg/injection, schedule: Q01DX009 (ip), vehicle: saline, evaluated on day 30
  T/C: 109, 118 [5 of 6 alive], 150, 150 [5 of 6 alive], 154, 175 % of control
dose: 4.0 mg/kg/injection, schedule: Q01DX009 (ip), vehicle: saline, evaluated on day 60
  T/C: 209 % of control
dose: 5.0 mg/kg/injection, schedule: Q01DX009 (ip), vehicle: saline
  T/C: 144 % of control
dose: 5.0 mg/kg/injection, schedule: Q01DX009 (ip), vehicle: water
  T/C: 144, 146, 148, 149, 151, 156 % of control [5 of 6 alive]
dose: 8.0 mg/kg/injection, schedule: Q01DX009 (ip), vehicle: saline, evaluated on day 20
  T/C: 142 % of control
dose: 8.0 mg/kg/injection, schedule: Q01DX009 (ip), vehicle: saline, evaluated on day 30
  T/C: 145, 150, 154, 157, 163, 168 % of control
dose: 8.0 mg/kg/injection, schedule: Q01DX009 (ip), vehicle: saline, evaluated on day 60
  T/C: 209 % of control
dose: 10.0 mg/kg/injection, schedule: Q01DX005 (ip), vehicle: Klucel (hydroxypropylcellulose) (HPC), evaluated on day 30
  T/C: 132, 133, 134, 137, 138, 142, 148, 151 (2×), 155, 158 (4×), 160, 161, 163, 166, 169 (2×), 172, 173, 174, 175, 176 (2×), 177, 178, 183, 185, 228 % of control
dose: 10.0 mg/kg/injection, schedule: Q01DX005 (ip), vehicle: Klucel (hydroxypropylcellulose) (HPC), evaluated on day 35
  T/C: 113 % of control
dose: 10.0 mg/kg/injection, schedule: Q01DX009 (ip), vehicle: Klucel (hydroxypropylcellulose) (HPC), evaluated on day 30
  T/C: 106, 121, 128, 129 (2×), 132, 135, 142 (2×), 144 (2×), 146, 150, 151 (2×), 162 (2×), 163, 165, 166 (2×), 168 [4 of 6 alive], 174, 175, 176 (2×), 180, 184, 185, 186, 189, 205, 209, 211, 214 % of control
dose: 10.0 mg/kg/injection, schedule: Q01DX009 (ip), vehicle: Klucel (hydroxypropylcellulose) (HPC), evaluated on day 35
  T/C: 180 % of control
dose: 10.0 mg/kg/injection, schedule: Q01DX009 (ip), vehicle: saline
  T/C: 145 % of control
dose: 10.0 mg/kg/injection, schedule: Q01DX009 (ip), vehicle: water
  T/C: 146 (2×), 151, 152, 158, 166, 213 % of control
dose: 16.0 mg/kg/injection, schedule: Q01DX009 (ip), vehicle: saline, evaluated on day 20
  T/C: 151 % of control
dose: 16.0 mg/kg/injection, schedule: Q01DX009 (ip), vehicle: saline, evaluated on day 30
  T/C: 100, 131, 168, 177, 195 % of control (2×)
dose: 20.0 mg/kg/injection, schedule: Q01DX005 (ip), vehicle: Klucel (hydroxypropylcellulose) (HPC), evaluated on day 30
  T/C: 126, 133, 138 [5 of 6 alive], 139, 144, 145, 153, 157 (2×), 158, 161, 163, 166, 173, 174, 175, 176 (2×), 178 (2×), 182 (2×), 183, 183 [5 of 6 alive], 184, 187, 188, 198, 213, 214, 262 % of control
dose: 20.0 mg/kg/injection, schedule: Q01DX005 (ip), vehicle: Klucel (hydroxypropylcellulose) (HPC), evaluated on day 35
  T/C: 163 % of control
dose: 20.0 mg/kg/injection, schedule: Q01DX009 (ip), vehicle: Klucel (hydroxypropylcellulose) (HPC), evaluated on day 30
  T/C: 102 [2 of 3 alive], 131, 133, 136, 141, 143, 147, 154, 160 (3×), 162 (2×), 163, 171, 172, 173, 179, 182 (2×), 185 (2×), 186 (2×), 187, 188, 192, 194, 197, 212, 213, 221, 223, 225, 229 % of control
dose: 20.0 mg/kg/injection, schedule: Q01DX009 (ip), vehicle: Klucel (hydroxypropylcellulose) (HPC), evaluated on day 35
  T/C: 201 % of control
dose: 20.0 mg/kg/injection, schedule: Q01DX009 (ip), vehicle: saline
  T/C: 154 [5 of 6 alive], 162, 172, 220 % of control
dose: 20.0 mg/kg/injection, schedule: Q01DX009 (ip), vehicle: water
  T/C: 152, 156, 158, 161, 181, 186, 219 % of control [7 of 8 alive]
dose: 24.0 mg/kg/injection, schedule: Q01DX009 (ip), vehicle: water
  T/C: 140 % of control
dose: 30.0 mg/kg/injection, schedule: Q04DX002 (ip), vehicle: Klucel (hydroxypropylcellulose) (HPC), evaluated on day 30
  T/C: 106 (2×), 111, 130, 139, 140, 147, 151, 153 (2×), 156, 159, 162 (2×), 166, 169, 171 (2×), 172, 175 (2×), 176, 177 (2×), 180, 181, 198, 207 % of control
dose: 30.0 mg/kg/injection, schedule: Q04DX002 (ip), vehicle: Klucel (hydroxypropylcellulose) (HPC), evaluated on day 35
  T/C: 146 % of control
dose: 30.0 mg/kg/injection, schedule: Q04DX002 (ip), vehicle: Klucel (hydroxypropylcellulose) (HPC)
  survivor count: 3 of 3
dose: 30.0 mg/kg/injection, schedule: Q04DX003 (ip), vehicle: Klucel (hydroxypropylcellulose) (HPC), evaluated on day 30
  T/C: 86, 100, 134, 135, 137, 146, 150, 152 (2×), 156, 157 (2×), 158, 162, 163 (2×), 165, 169, 171, 172, 175, 181, 183 (2×), 185 (2×), 193, 198, 204, 205, 250 % of control
dose: 30.0 mg/kg/injection, schedule: Q04DX003 (ip), vehicle: Klucel (hydroxypropylcellulose) (HPC), evaluated on day 35
  T/C: 188 % of control
dose: 32.0 mg/kg/injection, schedule: Q01DX009 (ip), vehicle: saline, evaluated on day 20
  T/C: 131 % of control
dose: 32.0 mg/kg/injection, schedule: Q01DX009 (ip), vehicle: saline, evaluated on day 30
  T/C: 113, 145, 168, 181, 186, 260 % of control
dose: 40.0 mg/kg/injection, schedule: Q01DX005 (ip), vehicle: Klucel (hydroxypropylcellulose) (HPC), evaluated on day 30
  T/C: 126, 128, 139 (2×), 142, 143, 151, 156, 158, 163, 166 [4 of 6 alive], 169, 175, 179, 185, 191, 192, 193, 199, 206, 210, 215, 219, 220, 228, 236, 243, 249, 270 % of control
dose: 40.0 mg/kg/injection, schedule: Q01DX005 (ip), vehicle: Klucel (hydroxypropylcellulose) (HPC), evaluated on day 35
  T/C: 201 % of control
dose: 40.0 mg/kg/injection, schedule: Q01DX005 (ip), vehicle: Klucel (hydroxypropylcellulose) (HPC)
  survivor count: 3 of 3 and 6 of 6
dose: 40.0 mg/kg/injection, schedule: Q01DX009 (ip), vehicle: Klucel (hydroxypropylcellulose) (HPC), evaluated on day 30
  T/C: 97, 105, 113, 115 (2×), 116, 120, 121, 123, 125, 127, 132, 134, 136 (2×), 141, 142, 156, 157, 158, 161, 165, 171 (3×), 173, 178, 179, 181, 182, 195, 204, 217, 278 % of control
